Results taken from paper PMC3349749.
No constants are given. Whether binding was seen depends on the method and setting. For some assays here: Binding seen in cells or lysates may run through a third protein. Some results given as binding are weak or reduced against the parent protein; the word gives no strength. Tags and fused reporters may be left off the sequences shown.

T1: Myc-His-CSN-5D140N (N. crassa) (UniProt Q7RXX8)
T1 sequence: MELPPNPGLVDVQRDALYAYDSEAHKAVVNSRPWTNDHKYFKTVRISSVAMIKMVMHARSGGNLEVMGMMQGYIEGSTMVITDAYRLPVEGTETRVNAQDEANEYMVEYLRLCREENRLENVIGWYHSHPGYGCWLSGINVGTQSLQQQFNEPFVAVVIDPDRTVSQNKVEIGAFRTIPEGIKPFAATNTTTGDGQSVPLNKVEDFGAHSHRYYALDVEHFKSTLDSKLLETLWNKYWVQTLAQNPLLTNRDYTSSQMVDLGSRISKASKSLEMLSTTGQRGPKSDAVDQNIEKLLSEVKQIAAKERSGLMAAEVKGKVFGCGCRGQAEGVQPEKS

T2: Myc-His-CSN-5H129A (N. crassa) (UniProt Q7RXX8)
T2 sequence: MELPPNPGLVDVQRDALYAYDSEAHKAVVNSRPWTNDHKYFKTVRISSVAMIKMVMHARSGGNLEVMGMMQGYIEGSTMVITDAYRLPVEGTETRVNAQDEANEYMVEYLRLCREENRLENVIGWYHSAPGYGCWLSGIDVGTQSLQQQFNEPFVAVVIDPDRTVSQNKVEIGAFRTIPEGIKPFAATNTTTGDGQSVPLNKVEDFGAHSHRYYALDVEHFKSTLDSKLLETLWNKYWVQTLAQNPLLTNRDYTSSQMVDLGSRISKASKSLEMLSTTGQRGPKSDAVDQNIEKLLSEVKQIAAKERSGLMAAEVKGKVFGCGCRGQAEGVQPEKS

T3: Flag-CSN-5D140N (N. crassa) (UniProt Q7RXX8)
T3 sequence: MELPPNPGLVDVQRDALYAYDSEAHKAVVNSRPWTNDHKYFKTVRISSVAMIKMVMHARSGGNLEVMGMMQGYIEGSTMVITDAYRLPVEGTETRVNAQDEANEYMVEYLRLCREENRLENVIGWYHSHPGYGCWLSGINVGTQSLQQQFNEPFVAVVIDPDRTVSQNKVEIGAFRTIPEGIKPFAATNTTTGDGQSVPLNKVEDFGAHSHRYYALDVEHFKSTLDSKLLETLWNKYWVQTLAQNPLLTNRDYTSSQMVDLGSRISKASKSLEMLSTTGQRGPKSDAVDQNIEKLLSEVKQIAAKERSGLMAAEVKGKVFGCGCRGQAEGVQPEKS

T4: Flag-CSN-5H129A (N. crassa) (UniProt Q7RXX8)
T4 sequence: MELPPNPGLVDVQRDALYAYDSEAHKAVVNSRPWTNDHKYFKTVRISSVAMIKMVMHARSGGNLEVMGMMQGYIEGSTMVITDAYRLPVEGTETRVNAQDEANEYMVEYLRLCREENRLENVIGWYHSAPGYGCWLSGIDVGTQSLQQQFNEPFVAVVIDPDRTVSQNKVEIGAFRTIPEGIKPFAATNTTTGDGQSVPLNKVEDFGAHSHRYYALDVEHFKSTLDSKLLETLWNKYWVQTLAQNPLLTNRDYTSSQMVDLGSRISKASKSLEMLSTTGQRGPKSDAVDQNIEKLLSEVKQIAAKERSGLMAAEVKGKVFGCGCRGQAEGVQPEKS

T5: Flag-CSN-5H127A (N. crassa) (UniProt Q7RXX8)
T5 sequence: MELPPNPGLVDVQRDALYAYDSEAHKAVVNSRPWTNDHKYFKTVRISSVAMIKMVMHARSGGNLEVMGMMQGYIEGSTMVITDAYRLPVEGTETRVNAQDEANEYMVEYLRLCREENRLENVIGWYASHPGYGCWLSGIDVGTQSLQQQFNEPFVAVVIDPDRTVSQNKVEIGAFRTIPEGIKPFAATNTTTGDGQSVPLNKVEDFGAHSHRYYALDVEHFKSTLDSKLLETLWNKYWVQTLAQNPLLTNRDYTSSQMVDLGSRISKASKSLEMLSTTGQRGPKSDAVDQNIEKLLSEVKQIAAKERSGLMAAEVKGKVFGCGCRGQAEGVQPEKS

T6: Flag-tagged CSN-5 (N. crassa) (UniProt Q7RXX8)
T6 sequence: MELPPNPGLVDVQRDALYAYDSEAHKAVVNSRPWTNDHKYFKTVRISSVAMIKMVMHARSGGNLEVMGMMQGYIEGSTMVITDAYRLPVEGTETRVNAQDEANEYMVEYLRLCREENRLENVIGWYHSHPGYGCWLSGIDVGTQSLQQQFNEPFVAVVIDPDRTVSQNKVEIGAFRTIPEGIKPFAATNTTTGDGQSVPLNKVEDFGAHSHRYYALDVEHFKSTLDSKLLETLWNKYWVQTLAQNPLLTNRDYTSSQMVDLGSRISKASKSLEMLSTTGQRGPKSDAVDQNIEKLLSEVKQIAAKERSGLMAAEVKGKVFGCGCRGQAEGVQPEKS


Experiments:
[1] = molecular target: T1, Myc-His-CSN-5D140N (N. crassa); experiment: two-step affinity purification, silver-stained SDS-PAGE; Myc-His-CSN-5 versions from csn-5^KO strains purified on a nickel column, then immunoprecipitated with c-Myc antibody agarose; protein profile on a silver-stained gel, bands of these samples not analysed by mass spectrometry
[2] = molecular target: T2, Myc-His-CSN-5H129A (N. crassa); experiment: as above
[3] = molecular target: T3, Flag-CSN-5D140N (N. crassa); experiment: co-IP; Flag antibody immunoprecipitation from csn-5^KO strains co-expressing Myc-CSN-6 and Flag-CSN-5 versions; western blot with c-Myc antibody
[4] = molecular target: T4, Flag-CSN-5H129A (N. crassa); experiment: as above
[5] = molecular target: T5, Flag-CSN-5H127A (N. crassa); experiment: as above
[6] = molecular target: T6, Flag-tagged CSN-5 (N. crassa); experiment: as above

Row | Binder | binding [1] | binding [2] | binding [3] | binding [4] | binding [5] | binding [6]
1 | CSN-1 (protein, UniProt Q7RXQ1 1-425) MDDRKLAFFTAIEDQGGVIVKGRTRFERLFHIGRSSVPLCVDALKAAVQEAKAGSDILRYQMAVNSLFQAAPNEPEALLDKAWMESKEKENRDTTAHLQAELQGYKNNLIKESIRMGNEDLGKHFEAIGDVEAAMDSFWKMRTEVSSTEQLVDLGKLLVRVAIERRDWKSIGNHLKPLNSVNDSDPKAKALKTYSKIANGIAALGQERYKEAAFCFVEASSGVPPEIYNQIASPNDVAIYGGLLALATMDRHELQANLLDNDSFREFLQREPHIRRAITQFVNGRYAACIEILESYRPDYLLDIYLQKHVPKLYADIRTKSIVQYLKPFSCVRLDTMQKAFNGPGPSIEDELFTMIKDGKLNARIDAINKSKALQTLENYEKQALDRIRRMNIMAADLEVKGSRKPGGMNDIPFSMTTDDTVSLA | binds | binds |  |  |  | 
2 | CSN-2 (protein, UniProt Q7SI58 1-490) MSDDDFMQDSDQEYDFEYEDDEEEDTGDVDIENKYYNAKQTKTSDPEEALQEFLSIPPLEQEKGDWGFKALKQAIKLEFKLKRYQEATEHYEELLTYVKSAVTRNYSEKSIDNMLNYIEKGYDDPKAVQCIEKFYSLTLQCFQSTNNERLWLKTNIKLARLLLDRKDYHAVARKLRELHNACRKSDGTDDPSKGTYSLEIYALEIQMYSETRNNNQLKVLYQKALKVRSAVPHPKIQGVIRECGGKMHMSEENWKEAQSDFFEAFRNYDEAGDLRRIQVLKYLLLTTMLMKSDINPFDSQEMKPYRNDPRIFAMTELVDAYQRDDIYRYEDVLQKNTDLLADPFIAENIDEVTRNMRTKGVVKLIAPYTRMRISWLAERLRITEPEVMDILSFLIVDGRVKGRIDEHKGVLELESREDADHVQAITVLSEAVGNLFNAVFKSTDGFQPGQGDFMNSMADQSADIGSLDDTMRSMGSGKRGRRVGLTQRAY | binds | binds |  |  |  | 
3 | CSN-3 (protein, UniProt Q7S7G7 1-497) MDARLTVLTAFPPAAGIDNEEYYQNSQQHAKRVRELVRDNAQWIRESADDILKHVNPAVYSLSYLMILEFLLQSPGWTSQQAHESLASYMAQFFLQFDARQIRCKGSTWSDVLKEAYSERGLFPASVAVELVTAALLRLDPSGSIITSHHCNLVELAYNTGNVGALLPLIEKPIIYMPAKGMSTAQPLCDMSLPPPAYINPDSQLTDALTSAAVLQYDFLCGLCFIERRMWQQAFDAFERCVTYPTRDGGCSKIMTEAYNKWILVGLLLTGKPPTLPETTSQAAKKIFATQGKPYKLFAQAFKSETAGDLVREFEVINSELLPNEGNVELAKLVLAHYQRWQIINLRNIYTNISLEKIQERTQSAETGAPLPTVEAVDQLVQSMIADGSLQGAIERPKDGSPAYLTFLSSPAQGMSEVEFSAQVNKVMQGIKALEPIIEATNKRLASNREYISHTVKRQFDAAREHKLGLQSAGGGFEESSFHIEEEEDLMSGLPAH | binds | binds |  |  |  | 

Results, then the binder that gave them:

Row | binding [1] | binding [2] | binding [3] | binding [4] | binding [5] | binding [6] | Binder
4 |  |  | binds | binds | binds | binds | Myc-tagged CSN-6 (protein, UniProt Q7S8C8 1-497) MAAATVNPLMSTLKSDSSLQVALHPLPILEISDYITRSYLRGYKGAIVGALIGQQNGRQITIEHSFSVKTEHTGQNYKVDSEWFTARLDQMKAVHKDRALDFVGWYTLVPKSGPTDAHLPIHSYFYSQNESAVLLGFHIHEILNPVAGDPLPLTIYESNLEIVDGTEASTVEVEGEDREMKDVTAEPSRSIKFRELPYTTETGEAEMIALEFVREGGSANVTTTATNITATEDEGSDKPLMKKVVDTNKGSKRRAVSSDDAAAEAPTTSSAAKGTATDKNRDANLTKAELDYMSALQAKYNAVQMMKKRLDTVISYLQRLPPDYLSSGDASSQQQQQQQQQQQTEGLDQPQYTVPSNKILRQIQALVTNVQLVMSNSTSGQGQGQGERDTDLGALEKELLKETNDVKLVELIADLMSSVKDMKEVGKKFHVVETAKNSKRREQASHGGGERFNPHHPYPGGGGGSSMMREHAGLVGEGSASGSGGSGPAGDLARFDH
5 | binds | binds |  |  |  |  | CSN-6 (endogenous) (protein, UniProt Q7S8C8 1-497) MAAATVNPLMSTLKSDSSLQVALHPLPILEISDYITRSYLRGYKGAIVGALIGQQNGRQITIEHSFSVKTEHTGQNYKVDSEWFTARLDQMKAVHKDRALDFVGWYTLVPKSGPTDAHLPIHSYFYSQNESAVLLGFHIHEILNPVAGDPLPLTIYESNLEIVDGTEASTVEVEGEDREMKDVTAEPSRSIKFRELPYTTETGEAEMIALEFVREGGSANVTTTATNITATEDEGSDKPLMKKVVDTNKGSKRRAVSSDDAAAEAPTTSSAAKGTATDKNRDANLTKAELDYMSALQAKYNAVQMMKKRLDTVISYLQRLPPDYLSSGDASSQQQQQQQQQQQTEGLDQPQYTVPSNKILRQIQALVTNVQLVMSNSTSGQGQGQGERDTDLGALEKELLKETNDVKLVELIADLMSSVKDMKEVGKKFHVVETAKNSKRREQASHGGGERFNPHHPYPGGGGGSSMMREHAGLVGEGSASGSGGSGPAGDLARFDH
6 | binds | binds |  |  |  |  | CSN-4 (protein, UniProt Q7S0P8 1-440) MVSSEVRDLLAQVPNWSQADRPAAFRTIITTITSSPDPSHFAADLKAVTDAIFLESLGVVATRALVIDLIDALKSLASGGPSADSINSTTSSIWLDVGKAIQQHIQSNPTLATSLVDQTATIYEELLAAAHESQNSFTDAAKTLAAIPLDSSQRRVTDKYKADLWIRIIRNYLEDDDATSAETYLNKLKNIIHNVADDNPVLNLHFKLSAARIQDSNRQFLAASQSYYEISLSPAIAEEERLHTLSMAIKCAVLAPAGPPRSRVLARLYKDERSASLEEFGILEKMFLDRLLARAEVEKFAQGLAPHQLATTSDGSTVLAKAMVEHNLLAVSRLYRNIGFDALGSWLGLDSGNKAEEITARMIEQGRLAGSIDQIDRIIYFESGLEASGEKGSGRAEVPVGKEMRRQDGMVQALAEDLERITDDLLVEFPQLVPAGVPGN
